Laboratory results reported in publication PMC11579010.
These are yes or no findings as the source states them, for the method shown. Binding seen in cells or lysates may run through a third protein. Some entries that bind do so weakly or less than the wild type.

The chains behind the UniProt entries cited, without tags or fusion partners. Where a name states a change or a piece, a line headed by the entry shows the natural chain unless it says otherwise. A line that says so, or that is headed by a name, gives the form on record, which may keep a tag or linker. Residues count along the entry.
UniProt Q08345, residues 19-913: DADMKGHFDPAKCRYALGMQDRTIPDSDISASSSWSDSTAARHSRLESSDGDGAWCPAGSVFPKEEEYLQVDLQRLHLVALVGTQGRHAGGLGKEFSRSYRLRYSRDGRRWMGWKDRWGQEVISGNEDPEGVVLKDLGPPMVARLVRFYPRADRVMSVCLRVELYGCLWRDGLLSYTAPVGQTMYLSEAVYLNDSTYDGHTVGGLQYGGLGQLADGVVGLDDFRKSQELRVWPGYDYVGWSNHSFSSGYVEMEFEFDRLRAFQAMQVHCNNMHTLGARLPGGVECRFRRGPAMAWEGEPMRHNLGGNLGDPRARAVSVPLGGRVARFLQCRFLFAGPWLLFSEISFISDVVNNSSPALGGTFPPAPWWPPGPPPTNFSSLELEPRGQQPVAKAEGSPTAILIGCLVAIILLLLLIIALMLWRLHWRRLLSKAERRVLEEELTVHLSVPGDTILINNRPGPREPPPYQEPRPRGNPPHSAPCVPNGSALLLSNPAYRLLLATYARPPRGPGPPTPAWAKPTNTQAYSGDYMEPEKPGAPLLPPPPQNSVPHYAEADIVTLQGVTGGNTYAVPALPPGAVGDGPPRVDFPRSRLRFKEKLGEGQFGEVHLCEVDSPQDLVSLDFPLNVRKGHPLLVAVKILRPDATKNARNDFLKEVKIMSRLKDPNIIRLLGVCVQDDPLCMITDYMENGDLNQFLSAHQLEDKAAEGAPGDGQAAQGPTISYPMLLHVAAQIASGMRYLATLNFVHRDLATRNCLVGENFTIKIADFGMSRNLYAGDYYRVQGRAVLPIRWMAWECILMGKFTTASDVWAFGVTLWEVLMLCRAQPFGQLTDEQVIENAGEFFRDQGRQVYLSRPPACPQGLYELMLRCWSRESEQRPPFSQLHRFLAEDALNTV
myc-DDR1-K618A (Q08345, form named): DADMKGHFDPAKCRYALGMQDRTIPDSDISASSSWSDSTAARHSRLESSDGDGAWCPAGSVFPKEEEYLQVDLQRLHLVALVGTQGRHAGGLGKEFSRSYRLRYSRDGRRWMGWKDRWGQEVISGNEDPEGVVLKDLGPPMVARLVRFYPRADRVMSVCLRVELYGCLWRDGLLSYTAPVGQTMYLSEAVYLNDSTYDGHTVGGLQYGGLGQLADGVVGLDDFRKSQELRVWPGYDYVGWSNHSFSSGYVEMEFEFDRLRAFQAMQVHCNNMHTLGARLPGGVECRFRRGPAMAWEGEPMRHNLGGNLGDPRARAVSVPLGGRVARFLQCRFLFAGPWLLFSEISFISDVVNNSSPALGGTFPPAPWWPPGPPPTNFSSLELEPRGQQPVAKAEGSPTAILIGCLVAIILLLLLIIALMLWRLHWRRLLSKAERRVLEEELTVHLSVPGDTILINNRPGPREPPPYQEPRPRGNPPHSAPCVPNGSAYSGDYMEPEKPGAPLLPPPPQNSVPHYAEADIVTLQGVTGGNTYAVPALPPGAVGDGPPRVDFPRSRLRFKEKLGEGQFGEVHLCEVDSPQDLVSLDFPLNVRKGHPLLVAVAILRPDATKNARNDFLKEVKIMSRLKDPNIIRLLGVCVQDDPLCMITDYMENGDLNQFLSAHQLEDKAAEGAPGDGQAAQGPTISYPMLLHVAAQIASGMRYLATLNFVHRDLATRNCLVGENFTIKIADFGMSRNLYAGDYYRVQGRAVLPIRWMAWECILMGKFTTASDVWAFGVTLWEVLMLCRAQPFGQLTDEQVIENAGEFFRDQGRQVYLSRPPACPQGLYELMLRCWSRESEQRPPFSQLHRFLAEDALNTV
myc-DDR1 (Q08345, form named): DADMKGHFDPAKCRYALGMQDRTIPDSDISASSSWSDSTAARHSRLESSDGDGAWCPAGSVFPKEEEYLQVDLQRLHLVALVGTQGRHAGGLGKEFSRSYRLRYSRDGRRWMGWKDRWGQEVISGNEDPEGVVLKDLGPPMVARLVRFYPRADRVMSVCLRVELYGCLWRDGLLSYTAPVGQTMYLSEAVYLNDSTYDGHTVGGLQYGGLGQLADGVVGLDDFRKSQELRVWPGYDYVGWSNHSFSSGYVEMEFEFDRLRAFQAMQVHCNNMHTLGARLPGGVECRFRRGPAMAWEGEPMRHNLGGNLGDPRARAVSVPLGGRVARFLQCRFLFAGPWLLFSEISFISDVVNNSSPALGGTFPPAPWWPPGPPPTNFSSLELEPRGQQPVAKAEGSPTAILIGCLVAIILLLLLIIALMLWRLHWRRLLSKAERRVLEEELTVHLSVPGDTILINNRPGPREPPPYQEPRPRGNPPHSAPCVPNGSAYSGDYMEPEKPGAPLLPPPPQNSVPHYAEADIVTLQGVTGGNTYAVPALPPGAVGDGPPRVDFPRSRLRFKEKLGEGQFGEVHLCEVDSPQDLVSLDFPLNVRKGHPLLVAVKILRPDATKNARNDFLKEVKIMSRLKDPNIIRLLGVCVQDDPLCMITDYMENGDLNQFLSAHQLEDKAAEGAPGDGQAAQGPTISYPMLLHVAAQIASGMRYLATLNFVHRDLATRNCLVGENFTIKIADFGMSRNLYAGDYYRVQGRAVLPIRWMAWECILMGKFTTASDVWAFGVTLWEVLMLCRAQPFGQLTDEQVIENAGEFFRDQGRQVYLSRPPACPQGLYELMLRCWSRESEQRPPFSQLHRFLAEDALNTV
UniProt P62993: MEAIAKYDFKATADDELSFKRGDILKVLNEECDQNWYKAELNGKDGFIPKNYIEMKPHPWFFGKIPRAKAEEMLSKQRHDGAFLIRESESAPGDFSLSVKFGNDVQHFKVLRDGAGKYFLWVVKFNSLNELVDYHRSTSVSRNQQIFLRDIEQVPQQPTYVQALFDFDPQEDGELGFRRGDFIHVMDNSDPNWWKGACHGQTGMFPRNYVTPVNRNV

Assays:
myc-DDR1-K618A = myc-DDR1-K618A (UniProt Q08345); test: co-IP; HEK293T cells co-transfected with myc-DDR1 (or myc-DDR1-K618A) and flag-GRB2 (or flag-GRB2 with missing domains); Pierce Co-Immunoprecipitation Kit, then western blot
myc-DDR1 = myc-DDR1 (UniProt Q08345); test: as above
[1] = molecular target: Discoidin domain receptor 1 (DDR1), in cervical cancer cells (human (in SiHa cervical cancer cells; endogenous or oeDDR1 not stated)) (UniProt Q08345); test: co-IP; SiHa cells; Pierce Co-Immunoprecipitation Kit, then western blot

binding (myc-DDR1-K618A)	binding (myc-DDR1)	binding [1]	Substance
binds	binds	–	flag-GRB2 (from UniProt P62993 1-217)
–	–	binds	Growth factor receptor bound protein 2 (GRB2), in cervical cancer cells (from UniProt P62993 1-217)
